Primary screen of a compound library

The filed quantity is “Percent Effect” (%). The controls that fix the scale are not given in the record; negative values are as filed. This is an unselected part of the compounds tested. Two or more numbers in one place are separate tests of the same structure; such repeats can differ widely.

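Phenotypic screen: M. tuberculosis growth, glucose 7H9 medium, 3 days; the read-out is not stated. Concentration: 50 µM. Higher reads as more growth inhibition (inferred: compounds with an IC50 in retests scored well above the rest). Of about 69,000 compounds tested this way, about 760 (1.1%) reached 50% or more in at least one test.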

{"compound": "CCOc1nc2cnccc2n(CC(=O)NCc2ccc(C)cc2)c1=O", "effect": 7.884}
{"compound": "CCn1cc(CN2CCC(CCC(=O)Nc3ccccc3Cl)CC2)cn1", "effect": "-11.24 & -11.66"}
{"compound": "Cc1cc(CNC(=O)c2ccc(C(C)N3CCCCC3)o2)[nH]n1", "stereo": "stereo not drawn", "effect": 6.676}
{"compound": "OC1CCN(c2ccnc3c(F)cc(Br)cc23)CC1", "effect": 0.4719}
{"compound": "CC(C)C(=O)N1CCN(Cc2cnn(C)c2)CC2(CC(=O)N(C)C2)C1.O=C(O)C(F)(F)F", "stereo": "stereo not drawn", "effect": 8.064}
{"compound": "COCCNC(=O)c1ccc(C)c(-n2cccc2)c1", "effect": "4.762 & -6.375"}
{"compound": "O=C(CCn1cnc2cc(F)c(F)cc21)N1CCN2CCCCC2C1", "stereo": "stereo not drawn", "effect": -10.07}
{"compound": "Cc1ncc(CNC(=O)N(C)C2CCN(c3ccccc3)C2=O)s1", "stereo": "stereo not drawn", "effect": 3.052}
{"compound": "[H][C@]12CN(C(=O)c3ccno3)CCN1C(=O)N(Cc1ccc(F)cc1)C2", "effect": "0.8848 & -1.038"}
{"compound": "COCC(=O)NC[C@H]1CC[C@H](c2nnc(-c3cccnc3)o2)CC1", "effect": -23.56}
{"compound": "CCOCC1CN(C(=O)Cc2ccccn2)Cc2c1cnn2CC", "stereo": "stereo not drawn", "effect": -7.347}
{"compound": "CS(=O)(=O)Cc1ccc(Cl)c(NCc2noc(C3CC3)n2)c1", "effect": "-3.629 & 5.876"}
{"compound": "CN(C)C(=O)N1CCN(CCn2nc3ccccn3c2=O)CC1", "effect": "-26.02 & -9.252"}
{"compound": "O=C(C1=CCCC1)N1CCC[C@]2(C[C@@H](OCc3ccccn3)CO2)C1.O=C(O)C(F)(F)F", "effect": "25.79 & 2.232"}
{"compound": "O=C(Nc1cc(F)ccc1OCC1CCCO1)c1ccoc1", "stereo": "stereo not drawn", "effect": 1.541}
{"compound": "CN1CCN(C(=O)N2CCC3(CCCN(C4CCOCC4)C3=O)C2)CC1", "stereo": "stereo not drawn", "effect": 15.5}
{"compound": "Cc1nc(N2CC[C@@H](c3ccc4ccccc4c3)[C@H](O)C2)no1", "effect": -10.48}
{"compound": "O=C(NCCc1c[nH]cn1)C1CCCN(C2CCOCC2)C1", "stereo": "stereo not drawn", "effect": 10.38}
{"compound": "NC(=O)c1cc(C2CCCN(CCOCC3CC3)C2)n[nH]1", "stereo": "stereo not drawn", "effect": 7.937}
{"compound": "Cc1nc(Cn2cc(C#N)c(=O)c3ccccc32)no1", "effect": "-14.21 & -70.92"}
{"compound": "O=C(O)C(F)(F)F.O=C(O)C(F)(F)F.c1cncc(-c2nnn3c2COCC(CNC2CCOCC2)C3)c1", "stereo": "stereo not drawn", "effect": 6.137}
{"compound": "CCn1nc(CNC(=O)C2CCCN(CC(N)=O)C2)c2ccccc21", "stereo": "stereo not drawn", "effect": 0.7489}
{"compound": "Cc1nn(C)c(C)c1OCC(=O)N1CCCCC1", "effect": 15.27}
{"compound": "NC(=O)CN1CCC(NCc2cc(C(F)(F)F)ccc2Cl)CC1", "effect": -19.33}
{"compound": "CCOC1CC2(CCN(C(C)=O)CC2)c2cc(F)ccc21", "stereo": "stereo not drawn", "effect": "-19.17 & 1.732"}
{"compound": "COc1ccc(Oc2cc(CN)ccn2)cc1", "effect": 22.39}
{"compound": "CCN(CC(=O)N(C)C)C(=O)c1ccc(-c2nc(C)cs2)cc1", "effect": 2.525}
{"compound": "CCCn1cnnc1CNC(=O)CC1C(=O)NCCN1CC=C(C)C", "stereo": "stereo not drawn", "effect": 16.68}
{"compound": "COCc1noc(-c2ccc(N(C)Cc3nccs3)nc2)n1", "effect": 25.43}
{"compound": "CCOC(=O)c1sc2ccsc2c1CNC(=O)C(C)OC", "stereo": "stereo not drawn", "effect": -6.857}
{"compound": "O=C(Cn1cc(C(=O)O)ccc1=O)Nc1cc(F)ccc1F", "effect": 10.54}
{"compound": "Cc1nc2c(c(NC(C)c3nnn[nH]3)n1)Cc1ccccc1OC2", "stereo": "stereo not drawn", "effect": 2.765}
{"compound": "COCC(=O)N1CCC2(COCc3c(C)nc(N(C)C)nc32)C1", "stereo": "stereo not drawn", "effect": -40.71}
{"compound": "COC(=O)N1CCCCC1C(=O)N1CCCN(c2ccnc(C)c2)CC1", "stereo": "stereo not drawn", "effect": "-11.48 & -2.613"}
{"compound": "Cc1cnn(CC2CCCN2C(=O)c2c(F)cccc2Cl)c1", "stereo": "stereo not drawn", "effect": 10.68}
{"compound": "CCn1cnnc1C1CCN(C(=O)CCCOc2ccccc2)CC1", "effect": -8.178}
{"compound": "COc1ccc(F)cc1NC(=O)NCC1(CN2CCOCC2)CC1", "effect": "0.9902 & 24.34"}
{"compound": "Cc1ccc(C(=O)Nc2cccc3c2C(=O)NC3)c(C)n1", "effect": -11.25}
{"compound": "CN(Cc1ccsc1)Cc1ccc(C2CCCCO2)o1", "stereo": "stereo not drawn", "effect": -9.172}
{"compound": "COCCO[C@H]1CCN(Cc2ccsc2)[C@H]1Cc1cccnc1.O=C(O)C(F)(F)F.O=C(O)C(F)(F)F", "effect": -9.421}
{"compound": "Cc1cc(CC(=O)N(C)Cc2cccc(OC(C)C)c2)n[nH]1", "effect": "-14.19 & 2.752"}
{"compound": "CS(=O)(=O)N1CCc2ccc(=O)n(CC3CCOCC3)c2CC1", "effect": "-8.221 & -14.31"}
{"compound": "COc1c(Br)c(CC2CC(CO)=NO2)c(OC)c2c1OCO2", "stereo": "stereo not drawn", "effect": 14.78}

For reference, 4 entries once more:

compound,effect
CCn1cnnc1C1CCN(C(=O)CCCOc2ccccc2)CC1,-8.178%
Cc1cc(CC(=O)N(C)Cc2cccc(OC(C)C)c2)n[nH]1,-14.19% & 2.752%
CCn1cc(CN2CCC(CCC(=O)Nc3ccccc3Cl)CC2)cn1,-11.24% & -11.66%
Cc1ccc(C(=O)Nc2cccc3c2C(=O)NC3)c(C)n1,-11.25%

Source: ChEMBL document CHEMBL3988442, “University of Dundee, Small-Polar-MMV Screening Library” (2021).